Results from the supplement of paper PMC12889115.
Some of the results follow. Values are raw readings; no control value is given beside them.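 Primary screen: polymyxin B was added at a level permeabilizing Salmonella outer membranes while sparing inner membranes. DMSO wells, both with and without polymyxin B, established maximum growth. Plate-to-plate variation meant each plate was ranked on its own, and the lowest-OD600 compounds were selected as hits.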

Test system: Salmonella enterica serovar Typhimurium SL1344
Assay: bacterial growth OD600 after 18 h with compound and polymyxin B; higher = more bacterial growth (less inhibition)
Conditions: 50 µM, Mueller-Hinton broth

SMILES	bacterial growth OD600 (polymyxin B 1 µg/mL)	bacterial growth OD600 (polymyxin B 0.75 µg/mL)
CCN(CC1CCCO1)C(=O)c1csc2nc(-c3ccccc3F)cn12 (stereo unspecified)	0.832	–
COc1cc(Cl)ccc1OCc1cc(C(=O)N(C)C2CC(C)(C)NC(C)(C)C2)no1	0.88	–
CCCC1(C2CCN(C(=O)CSc3ccccc3)CC2)NC(=O)N(CCc2ccccn2)C1=O (stereo unspecified)	–	0.803
CC1CCN(Cc2nnnn2CC(=O)NCCc2cn3ccccc3n2)CC1	–	0.849
CC(=O)N[C@@H](CC(C)C)C(=O)N1CCCC(c2[nH]ncc2-c2ccc(F)c(F)c2)C1 (stereo partly specified)	–	1.01
Cc1oc(-c2ccc(NC(=O)Cc3ccccc3)cc2)nc1CNC(=O)Cn1cnc2ccccc21	–	0.781
c1ccc(Oc2ncccc2CNCc2ccc3c(c2)OCCO3)cc1	–	0.799
O=C(NCc1cccc(C(F)(F)F)c1)C1CC12CCN(Cc1ccoc1)CC2 (stereo unspecified)	–	0.876
CC1CN(CC(=O)N2CCC(c3ccncc3)CC2)Cc2cc(Cl)ccc2O1 (stereo unspecified)	–	0.756
Cc1c(CNC2CCCN(CC3CCCCC3)C2)c(=O)n(-c2ccccc2)n1C (stereo unspecified)	0.452	–
CCOc1cc(CN2CCCC(c3nc(-c4ccncc4)ncc3-c3ccccc3)C2)ccc1OC (stereo unspecified)	–	0.798
Cc1nc[nH]c1CN1CCCC1C(=O)Nc1cccc(-c2ccc(F)cc2)c1 (stereo unspecified)	–	0.804
CN(CCOc1ccccc1)C(=O)c1ccc(OC2CCN(C(=O)C3CC3)CC2)cc1	0.896	–
Cc1nc(N2CCC(NCc3cccc(F)c3F)CC2)nc2cc(S(C)(=O)=O)ccc12	–	0.812
Cn1cc(CN2CCC(n3nccc3NC(=O)Nc3cccc(F)c3)CC2)cn1	–	0.771
CCOC(=O)CN(C)C(=O)C1CCC(=O)N(C2CCCCCC2)C1 (stereo unspecified)	0.861	–

SMILES	bacterial growth OD600 (polymyxin B 1 µg/mL)	bacterial growth OD600 (polymyxin B 0.75 µg/mL)
CSc1ccccc1C(=O)NCc1c(C)ncc2c1CCN(C(=O)[C@H](CC(C)C)NC(C)=O)C2	–	0.997
O=C(CCCn1cncn1)N1CCOc2ccc(C(O)C(c3ccccc3)c3ccccc3)cc2C1 (stereo unspecified)	–	0.869
CCOC(=O)C1(Cc2ccccc2C)CCCN(C(=O)Nc2ccc(OC)cc2)C1 (stereo unspecified)	0.815	–
c1ccc(-n2ncc3c2CCCC3NCc2cccc3ncccc23)nc1 (stereo unspecified)	–	0.802
Cc1ccc(CNC(=O)c2cc(COc3cccc(F)c3)[nH]n2)o1	–	0.855
COCCCN1C(=O)CC(CC(=O)N2CCN(c3ccccc3C)CC2)(c2ccccc2OC)C1=O (stereo unspecified)	–	0.011
O=C(Nc1cccc(-n2cccn2)c1)C1CCCN(Cc2ccc3c(c2)OCCO3)C1 (stereo unspecified)	0.747	–
O=C(c1cccs1)N1CCc2[nH]nc(-c3cccc(F)c3)c2C1	–	0
CSCCC(=O)NC1CC(=O)N(Cc2ccccc2C(F)(F)F)C1 (stereo unspecified)	0.941	–
COc1ccc(C(=O)Nc2ccnn2C2CCN(C(=O)c3cnc(C)cn3)CC2)cc1	1.11	–
Cc1cc(-c2cc(F)cc3c2OC(CNC(=O)C[C@@H]2C[C@@H](C)NC(=S)N2)C3)ccc1F (stereo partly specified)	–	0.83
COc1cc(OC)cc([C@@H]2C[C@H]3CN(Cc4cccc(Cl)c4)C(=O)[C@]34CCCN24)c1	0.008	–
COc1ccc(OCC2CCCN(C(=O)c3cn(C4CCCCC4)nn3)C2)cc1 (stereo unspecified)	0.248	–
CN(C)C1CCN(C(=O)c2csc3nc(-c4cccc(C(F)(F)F)c4)cn23)C1 (stereo unspecified)	1.17	–
CCN(Cc1cnn(C)c1)CC1CCCN(CCc2cccc(OC)c2)C1 (stereo unspecified)	0.835	–

Exported field by field: two of the compounds above
COc1cc(OC)cc([C@@H]2C[C@H]3CN(Cc4cccc(Cl)c4)C(=O)[C@]34CCCN24)c1
  bacterial growth OD600 (polymyxin B 1 µg/mL): 0.008
COc1ccc(OCC2CCCN(C(=O)c3cn(C4CCCCC4)nn3)C2)cc1 (stereo unspecified)
  bacterial growth OD600 (polymyxin B 1 µg/mL): 0.248
